Several values for one entry are separate records, joined by “and”; a condition that tells them apart may be missing. Identical values can stand only once. Hit rate of the full screen: of about 59,000 compounds, about 6,500 (11%) were called active. Inconclusive means that the source gave no clear call. Such entries were picked first, then a sample of the others. Cut-off read from the data, not from the text of the source: active = max dye-equivalent concentration above about 10 nM; inconclusive = mostly about 1.1 nM to 9.6 nM; inactive = weaker than that.
Assay: qHTS Assay for Spectroscopic Profiling in A350 Spectral Region
Conditions: Compound autofluorescence, 340/450 nm, Alexa 350 dye-equivalents; stronger effect = higher value

Row | SMILES | max dye-equivalent concentration
1 | CC1(C)Cc2c(C#N)c(N)n(-c3ccccc3)c(=O)c2CO1 | inactive
2 | CC(/C=N/n1cnnc1)=C\c1ccco1 | inconclusive: 1.7e-09 M
3 | Cc1cc2ncn(N)c2cc1C | inconclusive: 2.6e-09 M
4 | Cc1ccc(-n2c(Cn3cnc4ccccc43)nnc2SCC(=O)O)cc1 | inactive
5 | COc1ccc(S(=O)(=O)NCCCN2CCOCC2)c2ccccc12 | inconclusive: 1.2e-09 M
6 | Cn1c(COc2ccccc2)nnc1SCc1cc(=O)[nH]c2ccccc12 | inconclusive: 1.5e-09 M
7 | O=C(O)c1ccc(NS(=O)(=O)Cc2ccccc2)cc1 | inactive
8 | CCN(CC)CCCN1C(=O)c2oc3ccccc3c(=O)c2C1c1cc(OC)ccc1OC (stereo not given) | inactive
9 | COCC(=O)Nc1ccccc1NC(C)=O | inconclusive: 1.4e-09 M
10 | COc1ccc(OC)c(NC(=O)CSc2nnc(-c3ccco3)n2-c2ccc(C(=O)O)cc2)c1 | active: 1.5e-08 M
11 | O=C1C2ON(c3ccccc3)C(c3cccnc3)C2C(=O)N1c1ccc(Cl)c(Cl)c1 (stereo not given) | inconclusive: 2e-09 M
12 | Cc1cc(=O)oc2c(CN3CCCCC3)c(O)c(Cl)cc12 | active: 1.6e-05 M
13 | Cc1sc2nc(SCC(=O)NCc3ccco3)n(-c3ccccc3)c(=O)c2c1C | inconclusive: 4.2e-09 M
14 | CC(=O)C1=C(C)NC(=O)NC1c1cc(Br)ccc1OCC(N)=O (stereo not given) | inconclusive: 2.1e-09 M
15 | CC(=O)[C@@H]1CC[C@@H]2[C@@H]3CCC4=CC(=O)CC[C@@]4(C)[C@H]3CC[C@]21C | inconclusive: 5.4e-09 M and active: 2.7e-08 M
16 | CC1(C)CSC(=S)N1S(=O)(=O)c1ccccc1 | inconclusive: 2.3e-09 M
17 | CCC1Oc2ccccc2N(CC(=O)Nc2ccc(OC)cc2OC)C1=O (stereo not given) | inconclusive: 1.2e-09 M
18 | Cc1ccc(C(=O)CC(C(=O)O)n2ccc(C)n2)cc1 (stereo not given) | inconclusive: 1.2e-09 M
19 | O=C(Cn1c(SCC(=O)NC2CCCC2)nnc1-c1ccncc1)Nc1ccc2c(c1)OCO2 | inactive
20 | CC(=O)NC(Cc1ccccc1)C(=O)N1CCN(C(=O)c2cccs2)CC1 (stereo not given) | inconclusive: 7.1e-09 M
21 | CCOC(=O)c1cnc(C(C)(C)C)[nH]c1=O | inactive
22 | O=c1c(CCc2ccccc2)nc2cnc(Oc3ccccc3)nc2n1C[C@H]1CCCO1 | inactive
23 | CC(=O)N1CCc2cc(NS(=O)(=O)c3cccs3)ccc21 | inconclusive: 2.8e-09 M
24 | N#Cc1nc(-c2ccc(OCc3ccccc3)cc2)oc1NCCCn1ccnc1 | inconclusive: 2.1e-09 M
25 | CC1(C)CC(=O)C2=C(C1)N(CCN1CCOCC1)C1=C(C(=O)CC(C)(C)C1)C2c1cccc(Cl)c1 | active: 1.7e-06 M
26 | Cc1ccc(C)c(Cc2c(C)nc3c(C(=O)N4CCOCC4)cnn3c2C)c1 | active: 2.3e-08 M
27 | Cc1ccc(S(=O)(=O)N2CCN(c3nc(C(C)C)c4c(c3C#N)CC(C)(C)OC4)CC2)cc1 | inconclusive: 8.4e-09 M
28 | Cc1csc(NC(=O)CCn2c(=O)sc3ccccc32)n1 | inconclusive: 1.2e-09 M

Row | SMILES | max dye-equivalent concentration
29 | COC(=O)c1ccc(Oc2nc(NC(C)C)nc(SC)n2)cc1 | inconclusive: 1.2e-09 M
30 | CCN(CC)CCNc1ccc(CO)c2sc3ccccc3c(=O)c12 | inconclusive: 1.4e-09 M
31 | COc1ccc(-c2nc3cnc(N4CCNCC4)nc3n(C)c2=O)cc1 | active: 3e-08 M
32 | COc1ccccc1NC(=O)N(Cc1ccccc1)c1ccccn1 | inconclusive: 1.1e-09 M
33 | CCOC(=O)C1CCCN(C(=O)C2CCN(Cc3nc(-c4ccc(Cl)cc4)oc3C)CC2)C1 (stereo not given) | inactive
34 | O=C(CCn1c(=O)c2ccccc2n(Cc2cc(=O)n3ccccc3n2)c1=O)NCc1ccco1 | active: 4.7e-08 M
35 | COCCn1nnnc1C(c1cc2ccc(OC)cc2[nH]c1=O)N1CCc2ccccc2C1 (stereo not given) | active: 1.8e-08 M
36 | Cc1ccc(NC(=O)CS(=O)CC(=O)NC2CCN(Cc3ccccc3)CC2)c(C)c1 (stereo not given) | inconclusive: 3.6e-09 M
37 | COc1cc2[nH]c(=O)n(CCCCCC(=O)NCCCN3CCCC3=O)c(=O)c2cc1OC | inconclusive: 1.5e-09 M
38 | COc1ccc(C(=O)N2CCC[C@@]3(CCN(Cc4ccncc4)C3)C2)cc1 | inactive
39 | CCCCn1c(SCC(=O)Nc2cccc(OC)c2)nc2ccc(N3CCOCC3)cc2c1=O | active: 1.5e-08 M
40 | O=C(CSc1nc(-c2ccc(F)cc2)cs1)N1CCN(C(=O)c2ccco2)CC1 | inconclusive: 1.5e-09 M
41 | CC(=O)NC(Cc1ccccc1F)C(=O)NC1CCN(C(=O)c2cnccn2)CC1 (stereo not given) | inconclusive: 4.6e-09 M
42 | CC1(C)Cc2c(sc3nc(SCC(=O)O)[nH]c(=O)c23)CO1 | inconclusive: 9.6e-09 M
43 | O=C(Nc1cccc2nsnc12)c1ccc2c(c1)OCCO2 | inconclusive: 3.9e-09 M
44 | c1csc(-c2ncc3ccccn23)c1 | active: 5.5e-08 M
45 | COc1cc([C@@H]2Oc3cc([C@H]4Oc5cc(O)cc(O)c5C(=O)[C@H]4O)ccc3O[C@H]2CO)ccc1O | inactive
46 | Cc1cc(NC(=O)CCC(=O)N(c2ccccc2)C(C(=O)NC2CCCC2)c2ccncc2)no1 (stereo not given) | inactive
47 | CN(C)Cc1c[nH]c2nc[nH]c(=O)c12 | inconclusive: 5.7e-09 M
48 | CCN(CC)CCCN1C(=O)C(=O)/C(=C(/O)c2ccc3c(c2)OCCO3)C1c1ccc(C)o1 (stereo not given) | inconclusive: 1.6e-09 M
49 | COC(=O)N1CCC2(CC1)CN(c1cccc(-c3ccccc3)c1)C2 | inactive
50 | CC(C)(C)NC(=O)NC(=O)COC(=O)Cn1c(C(F)(F)F)nc2ccccc21 | inconclusive: 1.6e-09 M
51 | CCN(CC)CCOC(=O)C(c1ccccc1)c1ccccc1 | inconclusive: 2.6e-09 M
52 | OC(CCCN1CCCCC1)(c1ccccc1)c1ccccc1 | active: 8.1e-08 M
53 | Nc1nc2ccc(S(=O)(=O)c3ccc4nc(N)sc4c3)cc2s1 | inconclusive: 1.4e-09 M
54 | O=C(OCCN=C1NS(=O)(=O)c2ccccc21)c1cccnc1 | inconclusive: 1.7e-09 M
55 | CN(C)c1nc(NCc2ccccc2)nc(Oc2ccc(=O)[nH]n2)n1 | inactive
